Source: article PMC6091019

Protein sequences, listed by entry. Tags and fused reporters are not part of them. Lines headed by an entry give the natural chain unless they say otherwise; changes in a name come on top. Residues count along the entry.
UniProt P04937, residues 25-2477: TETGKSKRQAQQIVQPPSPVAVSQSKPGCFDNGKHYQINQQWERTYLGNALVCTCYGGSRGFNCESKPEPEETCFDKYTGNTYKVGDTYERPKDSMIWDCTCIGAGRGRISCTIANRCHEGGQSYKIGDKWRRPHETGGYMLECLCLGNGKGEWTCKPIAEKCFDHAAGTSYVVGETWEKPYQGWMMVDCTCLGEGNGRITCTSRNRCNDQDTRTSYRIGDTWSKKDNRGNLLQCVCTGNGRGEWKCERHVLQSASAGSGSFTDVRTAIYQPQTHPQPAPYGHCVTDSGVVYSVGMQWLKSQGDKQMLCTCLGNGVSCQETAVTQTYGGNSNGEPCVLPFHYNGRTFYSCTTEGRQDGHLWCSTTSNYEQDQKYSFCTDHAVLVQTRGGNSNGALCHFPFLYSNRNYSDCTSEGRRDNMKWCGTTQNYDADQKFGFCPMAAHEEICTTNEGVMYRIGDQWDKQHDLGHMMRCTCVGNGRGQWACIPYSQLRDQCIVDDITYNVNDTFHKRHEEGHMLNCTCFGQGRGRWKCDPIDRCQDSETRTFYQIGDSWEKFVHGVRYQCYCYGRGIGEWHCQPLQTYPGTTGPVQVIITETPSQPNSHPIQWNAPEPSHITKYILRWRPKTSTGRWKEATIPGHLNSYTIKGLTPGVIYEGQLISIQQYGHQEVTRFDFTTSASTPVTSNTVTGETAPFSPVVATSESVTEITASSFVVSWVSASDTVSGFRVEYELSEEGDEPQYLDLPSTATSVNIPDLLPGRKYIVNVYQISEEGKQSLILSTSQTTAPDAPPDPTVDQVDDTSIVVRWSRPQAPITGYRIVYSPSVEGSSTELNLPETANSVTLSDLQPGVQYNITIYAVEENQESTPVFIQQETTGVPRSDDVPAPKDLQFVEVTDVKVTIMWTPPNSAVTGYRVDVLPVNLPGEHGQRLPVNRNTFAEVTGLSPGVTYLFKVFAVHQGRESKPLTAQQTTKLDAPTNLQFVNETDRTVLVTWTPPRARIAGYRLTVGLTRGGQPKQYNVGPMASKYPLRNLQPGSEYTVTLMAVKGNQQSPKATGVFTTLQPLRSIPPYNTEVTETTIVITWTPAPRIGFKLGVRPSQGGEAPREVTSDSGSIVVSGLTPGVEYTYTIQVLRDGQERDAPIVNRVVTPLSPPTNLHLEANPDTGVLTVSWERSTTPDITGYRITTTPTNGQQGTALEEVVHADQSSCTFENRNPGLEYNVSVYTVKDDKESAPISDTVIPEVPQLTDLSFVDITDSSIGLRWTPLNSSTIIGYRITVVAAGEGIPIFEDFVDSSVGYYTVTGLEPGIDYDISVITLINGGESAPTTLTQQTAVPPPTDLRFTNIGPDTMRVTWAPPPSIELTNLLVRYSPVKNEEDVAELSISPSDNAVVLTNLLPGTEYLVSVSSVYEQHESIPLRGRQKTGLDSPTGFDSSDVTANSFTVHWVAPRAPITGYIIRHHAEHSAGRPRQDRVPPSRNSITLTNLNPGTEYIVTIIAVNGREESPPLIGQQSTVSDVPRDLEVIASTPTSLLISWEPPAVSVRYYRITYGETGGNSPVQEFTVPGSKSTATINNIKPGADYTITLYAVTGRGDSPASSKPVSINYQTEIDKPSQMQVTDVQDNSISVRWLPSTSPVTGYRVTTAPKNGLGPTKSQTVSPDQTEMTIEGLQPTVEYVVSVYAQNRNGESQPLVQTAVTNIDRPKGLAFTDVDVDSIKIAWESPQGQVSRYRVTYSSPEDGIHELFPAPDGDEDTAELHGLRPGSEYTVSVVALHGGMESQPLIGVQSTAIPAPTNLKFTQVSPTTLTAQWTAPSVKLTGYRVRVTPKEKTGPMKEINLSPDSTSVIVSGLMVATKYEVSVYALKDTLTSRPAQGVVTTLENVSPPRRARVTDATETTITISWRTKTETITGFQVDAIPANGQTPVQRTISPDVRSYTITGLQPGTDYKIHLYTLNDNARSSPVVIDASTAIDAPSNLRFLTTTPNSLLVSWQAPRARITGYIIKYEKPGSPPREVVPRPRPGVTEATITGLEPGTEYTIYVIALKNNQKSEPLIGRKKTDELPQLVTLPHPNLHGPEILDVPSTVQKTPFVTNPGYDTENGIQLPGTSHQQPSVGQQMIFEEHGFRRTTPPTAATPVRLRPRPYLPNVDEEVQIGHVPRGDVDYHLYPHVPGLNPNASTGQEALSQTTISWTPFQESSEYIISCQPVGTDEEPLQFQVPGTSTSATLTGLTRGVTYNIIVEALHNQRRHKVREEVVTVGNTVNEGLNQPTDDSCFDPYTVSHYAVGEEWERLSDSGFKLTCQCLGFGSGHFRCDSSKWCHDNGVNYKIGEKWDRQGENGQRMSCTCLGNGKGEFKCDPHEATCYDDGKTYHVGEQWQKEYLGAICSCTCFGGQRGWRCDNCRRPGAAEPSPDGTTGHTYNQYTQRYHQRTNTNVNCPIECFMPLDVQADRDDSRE
UniProt P08649: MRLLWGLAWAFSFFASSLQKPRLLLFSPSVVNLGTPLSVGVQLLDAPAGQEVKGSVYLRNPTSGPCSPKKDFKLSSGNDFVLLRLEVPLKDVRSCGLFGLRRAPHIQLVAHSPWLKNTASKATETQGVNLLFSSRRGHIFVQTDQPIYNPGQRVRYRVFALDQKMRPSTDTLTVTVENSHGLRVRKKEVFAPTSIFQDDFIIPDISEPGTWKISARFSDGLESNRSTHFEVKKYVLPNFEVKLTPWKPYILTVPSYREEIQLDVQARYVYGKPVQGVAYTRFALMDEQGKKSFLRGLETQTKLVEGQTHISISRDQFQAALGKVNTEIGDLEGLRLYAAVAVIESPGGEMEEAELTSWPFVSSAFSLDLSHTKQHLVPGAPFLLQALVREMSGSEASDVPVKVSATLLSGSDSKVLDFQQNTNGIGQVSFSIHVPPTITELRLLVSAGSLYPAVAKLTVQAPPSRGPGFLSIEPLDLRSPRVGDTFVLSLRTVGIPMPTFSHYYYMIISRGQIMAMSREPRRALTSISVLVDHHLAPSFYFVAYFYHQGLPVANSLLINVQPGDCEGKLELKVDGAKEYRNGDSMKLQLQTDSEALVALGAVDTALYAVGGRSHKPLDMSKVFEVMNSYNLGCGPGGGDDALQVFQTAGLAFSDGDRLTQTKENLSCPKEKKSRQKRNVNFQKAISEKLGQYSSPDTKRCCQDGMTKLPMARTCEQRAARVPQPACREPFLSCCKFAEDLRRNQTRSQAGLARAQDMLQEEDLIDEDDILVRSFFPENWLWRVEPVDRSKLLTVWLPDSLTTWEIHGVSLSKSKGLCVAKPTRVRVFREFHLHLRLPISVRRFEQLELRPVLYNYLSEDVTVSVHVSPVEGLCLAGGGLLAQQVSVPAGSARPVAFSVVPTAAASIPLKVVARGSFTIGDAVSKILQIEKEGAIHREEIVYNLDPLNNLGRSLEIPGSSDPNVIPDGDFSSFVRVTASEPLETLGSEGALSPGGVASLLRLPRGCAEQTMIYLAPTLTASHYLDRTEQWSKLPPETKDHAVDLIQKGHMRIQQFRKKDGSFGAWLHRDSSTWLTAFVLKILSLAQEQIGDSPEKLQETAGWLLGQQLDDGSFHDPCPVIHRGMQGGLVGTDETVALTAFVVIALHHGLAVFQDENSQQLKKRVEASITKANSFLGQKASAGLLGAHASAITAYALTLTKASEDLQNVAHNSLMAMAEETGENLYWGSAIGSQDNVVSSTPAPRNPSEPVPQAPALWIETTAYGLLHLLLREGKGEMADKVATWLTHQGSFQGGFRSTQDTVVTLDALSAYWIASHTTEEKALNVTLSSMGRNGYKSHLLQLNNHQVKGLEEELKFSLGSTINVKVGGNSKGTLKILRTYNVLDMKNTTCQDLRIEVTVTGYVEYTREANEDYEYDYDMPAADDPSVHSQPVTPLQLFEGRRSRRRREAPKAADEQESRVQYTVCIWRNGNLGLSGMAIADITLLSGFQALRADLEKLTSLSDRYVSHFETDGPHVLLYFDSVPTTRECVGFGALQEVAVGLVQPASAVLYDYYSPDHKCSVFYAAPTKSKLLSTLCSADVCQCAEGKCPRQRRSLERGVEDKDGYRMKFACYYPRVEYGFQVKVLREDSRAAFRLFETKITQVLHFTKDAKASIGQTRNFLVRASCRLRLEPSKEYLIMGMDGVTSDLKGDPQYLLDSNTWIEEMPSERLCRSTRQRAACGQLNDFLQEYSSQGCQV

Biological target: deoxycholate (DOC)-insoluble fibronectin aggregates from primary rat astrocytes (rat (endogenous in primary astrocytes)) (UniProt P04937)
Assay: co-sedimentation; DOC-insoluble fibronectin aggregates from deposits of activated rat astrocytes; SDS-PAGE under reducing conditions, in-gel trypsin digestion, LC-MS (LTQ Orbitrap XL), PEAKS; only proteins known or predicted to be secreted were kept

**Q.** For Complement C4B (from UniProt P08649), which binding is on record?
**A.** binds

Results are given in words; binding and its absence hold for the method and conditions named. In cells and extracts the contact can be indirect. A result given as binding can be weak or reduced; the word gives no strength.
